The name of at least one read-out is uncertain.
Target: Glucocerebrosidase (Homo sapiens (Human), UniProt P04062)
Test: Glucocerebrosidase activity assay with blue substrate (4MU-Glc)
Assay type: biochemical
Conditions: cells without inhibitor/activator mark (NA, Inactive, bare number); read-out: Activity AC50 or IC50 (μM unless nM indicated), no direction given
Description: The compounds in DMSO solution 0.5 μL/well were transferred to a black 96-well plate. The final titration was 24 nM to 50 μM, 12 concentrations, 2 times dilution. […] After 5 min of incubation at room temperature, the enzyme reaction was initiated by the addition of 33 μL/well blue substrate. Final concentrations of the blue substrate (4MU-Glc) was 1.5 mM. The blue substrate reaction was terminated by the addition of 33 μL/well stop solution (1 M NaOH and 1 M glycine mixture, pH 10) after 30 min of incubation at 37° C. The fluorescence was then measured in the Biotek Synergy H1 multi-mode plate reader with Ex=365 nm and Em=440 nm.
Additional compounds were prepared and tested according to the procedures provided in the examples above.
Additional substituted quinazoline compounds were prepared and tested according to the procedures provided in the examples above.

Chains of the proteins cited; added tags and fusions are not shown. Residues count along the entry.
UniProt P04062, 40-536: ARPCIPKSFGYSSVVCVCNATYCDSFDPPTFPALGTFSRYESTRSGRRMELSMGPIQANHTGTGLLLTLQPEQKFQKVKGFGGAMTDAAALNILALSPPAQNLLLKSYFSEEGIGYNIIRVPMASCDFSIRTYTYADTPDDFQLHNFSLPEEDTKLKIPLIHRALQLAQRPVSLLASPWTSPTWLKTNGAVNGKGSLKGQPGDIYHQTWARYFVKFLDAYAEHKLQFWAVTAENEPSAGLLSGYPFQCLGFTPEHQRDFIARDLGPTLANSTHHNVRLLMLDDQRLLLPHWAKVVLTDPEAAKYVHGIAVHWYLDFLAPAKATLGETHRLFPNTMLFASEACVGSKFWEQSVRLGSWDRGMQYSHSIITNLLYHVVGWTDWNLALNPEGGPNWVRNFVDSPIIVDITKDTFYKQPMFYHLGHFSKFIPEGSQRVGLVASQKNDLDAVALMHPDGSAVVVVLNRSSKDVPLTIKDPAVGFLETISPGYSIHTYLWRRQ

SMILES: CN(CCOc1ccc(I)cc1)c1nc(-c2cccnc2)nc2ccccc12 [compound 107]
- AC50: 6.25 µM

— US10501435B2, “Substituted quinazoline compounds and uses thereof for modulating glucocerebrosidase activity” (Northwestern University, priority 2015, dated 2019)
